Source: PubChem BioAssay AID1508597 (Cure First, 2020)
Screen: 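Knock-downs altering ovarian cancer cell survival with or without PARP inhibitor rucaparib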 (primary screen). System: human ovarian carcinoma lines grown from tumours: OCI-P5x (papillary serous) and OCI-C5x (clear cell). Knock-down reagent: siRNA pool against human genes, 1.25 pmol siRNA per well. Timing: 72 h or 96 h, depending on the cell culture. Treatment: rucaparib 20 µM (about IC30) or vehicle, present until read-out. Detection: 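Luminescent ATP-based viability assay read 72 or 96 h after transfection, depending on culture, given as normalised percent viability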. Direction: viability, normalised: higher = more viable cells remaining. Active means: 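a well counts as a hit if its normalised viability is under 80 percent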. Meaning of the calls: active = viability under 80%; inactive = viability 80% or more.
In all, the deposit lists about 2,100 reagents; this is a part drawn at random. 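Calls flag viability under 80% in either arm, not effects specific to rucaparib; the reference for percent is not stated.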 A reagent listed more than once was tested more than once; the source does not tell the runs apart. Not stated in the record: the 100% reference.

gene	rucaparib or vehicle	cell line	technical replicate	viability, normalised (%)	outcome
MRPL58	Rucaparib	OCI-C5x (clear cell)	1	60.5	active
MRPL58	Rucaparib	OCI-C5x (clear cell)	1	61	active
MRPL58	Rucaparib	OCI-C5x (clear cell)	2	37.7	active
MRPL58	Rucaparib	OCI-C5x (clear cell)	2	67.7	active
MRPL58	Rucaparib	OCI-C5x (clear cell)	3	60.4	active
MRPL58	Rucaparib	OCI-C5x (clear cell)	3	51.8	active
MRPL58	Rucaparib	OCI-P5x (serous)	1	68.7	active
MRPL58	Rucaparib	OCI-P5x (serous)	1	59.3	active
MRPL58	Rucaparib	OCI-P5x (serous)	2	59.7	active
MRPL58	Rucaparib	OCI-P5x (serous)	2	54.5	active
MRPL58	Rucaparib	OCI-P5x (serous)	3	64.8	active
MRPL58	Rucaparib	OCI-P5x (serous)	3	96	inactive
MRPL58	Vehicle	OCI-C5x (clear cell)	1	68.5	active
MRPL58	Vehicle	OCI-C5x (clear cell)	1	70.5	active
MRPL58	Vehicle	OCI-C5x (clear cell)	2	40.5	active
MRPL58	Vehicle	OCI-C5x (clear cell)	2	73.4	active
MRPL58	Vehicle	OCI-C5x (clear cell)	3	67.8	active
MRPL58	Vehicle	OCI-C5x (clear cell)	3	56.9	active
MRPL58	Vehicle	OCI-P5x (serous)	1	74.5	active
MRPL58	Vehicle	OCI-P5x (serous)	1	71.2	active
MRPL58	Vehicle	OCI-P5x (serous)	2	78.4	active
MRPL58	Vehicle	OCI-P5x (serous)	2	73.3	active
MRPL58	Vehicle	OCI-P5x (serous)	3	77.5	active
MRPL58	Vehicle	OCI-P5x (serous)	3	68.1	active
SETD4	Rucaparib	OCI-C5x (clear cell)	1	69.2	active
SETD4	Rucaparib	OCI-C5x (clear cell)	2	70	active
SETD4	Rucaparib	OCI-C5x (clear cell)	3	69.6	active
SETD4	Rucaparib	OCI-P5x (serous)	1	59	active
SETD4	Rucaparib	OCI-P5x (serous)	2	71.4	active
SETD4	Rucaparib	OCI-P5x (serous)	3	63.5	active
SETD4	Vehicle	OCI-C5x (clear cell)	1	55.9	active
SETD4	Vehicle	OCI-C5x (clear cell)	2	61.4	active
SETD4	Vehicle	OCI-C5x (clear cell)	3	64.7	active
SETD4	Vehicle	OCI-P5x (serous)	1	66.8	active
SETD4	Vehicle	OCI-P5x (serous)	2	75.2	active
SETD4	Vehicle	OCI-P5x (serous)	3	80.9	inactive
MAST2	Rucaparib	OCI-C5x (clear cell)	1	80.9	inactive
MAST2	Rucaparib	OCI-C5x (clear cell)	2	57.5	active
MAST2	Rucaparib	OCI-C5x (clear cell)	3	63	active
MAST2	Rucaparib	OCI-P5x (serous)	1	94.5	inactive
MAST2	Rucaparib	OCI-P5x (serous)	2	94.1	inactive
MAST2	Rucaparib	OCI-P5x (serous)	3	88.6	inactive
MAST2	Vehicle	OCI-C5x (clear cell)	1	63.6	active
MAST2	Vehicle	OCI-C5x (clear cell)	2	63.1	active
MAST2	Vehicle	OCI-C5x (clear cell)	3	49.2	active
MAST2	Vehicle	OCI-P5x (serous)	1	80.2	inactive
MAST2	Vehicle	OCI-P5x (serous)	2	65.3	active
MAST2	Vehicle	OCI-P5x (serous)	3	64.4	active
RBKS	Rucaparib	OCI-C5x (clear cell)	1	47.5	active
RBKS	Rucaparib	OCI-C5x (clear cell)	2	42.7	active
RBKS	Rucaparib	OCI-C5x (clear cell)	3	61.7	active
RBKS	Rucaparib	OCI-P5x (serous)	1	65	active
RBKS	Rucaparib	OCI-P5x (serous)	2	78.7	active
RBKS	Rucaparib	OCI-P5x (serous)	3	67.6	active
RBKS	Vehicle	OCI-C5x (clear cell)	1	38.3	active
RBKS	Vehicle	OCI-C5x (clear cell)	2	31.4	active
RBKS	Vehicle	OCI-C5x (clear cell)	3	46.6	active
RBKS	Vehicle	OCI-P5x (serous)	1	73.9	active
RBKS	Vehicle	OCI-P5x (serous)	2	59.2	active
RBKS	Vehicle	OCI-P5x (serous)	3	76.8	active
